Taken from: PubChem BioAssay AID652243 (Drosophila RNAi Screening Center, 2013)
The deposit covers about 24,000 reagents; this is a random part of those with a known target gene and a result. In the full data, 246 (1%) got an active call. 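Plates not normalised; calls are printed but the firefly/Renilla ratio behind them is not deposited; fold cut for lowering reported inconsistently.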 Raw values vary from plate to plate and are shown uncorrected. Not given: the amount of reagent.

Test: 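Fly regulators of androgen-dependent reporter output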 (primary screen)
System: Drosophila S2R+ cells
Knock-down reagent: long dsRNA against Drosophila genes
Timing: 72 h (48 h, then 24 h hormone)
Challenge: synthetic androgen R1881 at 10 nM for 24 h
Detection: 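Firefly light from an androgen-responsive reporter and Renilla control light per well, raw and unnormalised, for each of two replicates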
Direction: firefly reporter light: higher = more light from androgen-responsive reporter; Renilla control light: higher = more constitutive control signal (cell number, transfection)
Hit rule: 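Hit when the log firefly-to-Renilla ratio dropped or increased by a fixed fold versus the mean of GFP or LacZ controls across duplicate plates; lowering cut given as 1.5 and as 3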
Meaning of the calls: active = hit: reporter lowered or raised; inactive = no hit

Gene | PubChem SID | firefly reporter light, replicate 1 | firefly reporter light, replicate 2 | Renilla control light, replicate 1 | Renilla control light, replicate 2 | Outcome
Usp5 (GeneID 38375) | SID104188036 | 1.45e5 | 2.37e5 | 2.14e6 | 2.52e6 | inactive
Usp5 (GeneID 38375) | SID104207075 | 1.66e5 | 4.07e5 | 6.01e5 | 1.01e6 | inactive
thoc6 (GeneID 39394) | SID104190320 | 7.47e5 | 8.00e5 | 1.36e6 | 1.51e6 | inactive
CG4069 (GeneID 39437) | SID104190188 | 1.27e6 | 6.82e5 | 1.21e6 | 1.10e6 | inactive
Cdk4 (GeneID 36854) | SID104187150 | 4.57e5 | 4.68e5 | 1.55e6 | 1.70e6 | inactive
Cdk4 (GeneID 36854) | SID104205807 | 1.65e5 | 1.24e5 | 4.69e5 | 4.75e5 | inactive
agt (GeneID 40816) | SID104192403 | 1.66e5 | 1.31e5 | 3.20e6 | 2.60e6 | inactive
CG15784 (GeneID 31461) | SID104197882 | 2.18e5 | 2.91e5 | 2.65e6 | 2.79e6 | inactive
CG15784 (GeneID 31461) | SID104203929 | 1.03e6 | 1.05e6 | 1.33e6 | 1.21e6 | inactive
CG5321 (GeneID 32399) | SID104199732 | 4.35e5 | 4.49e5 | 2.16e6 | 2.48e6 | inactive
CG5321 (GeneID 32399) | SID104202161 | 4.32e5 | 9.21e5 | 8.58e5 | 2.01e6 | inactive
CG5321 (GeneID 32399) | SID104205892 | 2.97e5 | 3.80e5 | 7.75e5 | 8.59e5 | inactive
CG14860 (GeneID 41803) | SID104194775 | 2.18e5 | 2.63e5 | 3.20e6 | 3.67e6 | inactive
CG14860 (GeneID 41803) | SID104207476 | 3.97e5 | 4.70e5 | 1.26e6 | 1.18e6 | inactive

Laid out differently: 2 of the entries above.
Gene	PubChem SID	firefly reporter light, replicate 1	firefly reporter light, replicate 2	Renilla control light, replicate 1	Renilla control light, replicate 2	Outcome
CG5321 (GeneID 32399)	SID104205892	2.97e5	3.80e5	7.75e5	8.59e5	inactive
CG14860 (GeneID 41803)	SID104194775	2.18e5	2.63e5	3.20e6	3.67e6	inactive

The results go on:
Gene | PubChem SID | firefly reporter light, replicate 1 | firefly reporter light, replicate 2 | Renilla control light, replicate 1 | Renilla control light, replicate 2 | Outcome
ash2 (GeneID 42936) | SID104196694 | 56937 | 38035 | 6.08e5 | 4.79e5 | inactive
CG34454 (GeneID 5740130) | SID104215489 | 6.06e5 | 5.78e5 | 1.33e6 | 1.39e6 | inactive
Pms2 (GeneID 36705) | SID104187303 | 1.60e6 | 9.01e5 | 2.30e6 | 1.27e6 | inactive
CG13427 (GeneID 37316) | SID104186181 | 97736 | 1.11e5 | 1.34e6 | 1.31e6 | inactive
roq (GeneID 39818) | SID104190019 | 35421 | 36054 | 4.48e5 | 2.53e5 | inactive
CG43755 (GeneID 319026) | SID104179804 | 1.56e5 | 2.59e5 | 3.10e5 | 4.34e5 | inactive
elB (GeneID 34844) | SID104203585 | 5.91e5 | 2.99e5 | 6.89e5 | 4.44e5 | inactive
mamo (GeneID 32353) | SID104198793 | 5.24e5 | 5.15e5 | 5.20e5 | 4.21e5 | inactive
mamo (GeneID 32353) | SID104199162 | 6.94e5 | 5.56e5 | 3.60e6 | 2.95e6 | inactive
mamo (GeneID 32353) | SID104199163 | 4.69e5 | 4.48e5 | 3.16e6 | 3.20e6 | inactive
mamo (GeneID 32353) | SID104199164 | 2.69e5 | 3.16e5 | 2.23e6 | 1.86e6 | inactive
mamo (GeneID 32353) | SID104202392 | 1.41e6 | 1.54e6 | 1.60e6 | 1.83e6 | inactive
mamo (GeneID 32353) | SID104204354 | 6.68e5 | 5.22e5 | 1.46e6 | 9.19e5 | inactive
mamo (GeneID 32353) | SID104205542 | 6.69e5 | 5.03e5 | 7.05e5 | 5.12e5 | inactive
mamo (GeneID 32353) | SID104208267 | 6.70e5 | 6.95e5 | 1.58e6 | 1.67e6 | inactive
